Primary screen of a compound library

Amino acid sequences for entries named in this document (tags omitted). Residues count along the entry.
UniProt A4I591, 1-473: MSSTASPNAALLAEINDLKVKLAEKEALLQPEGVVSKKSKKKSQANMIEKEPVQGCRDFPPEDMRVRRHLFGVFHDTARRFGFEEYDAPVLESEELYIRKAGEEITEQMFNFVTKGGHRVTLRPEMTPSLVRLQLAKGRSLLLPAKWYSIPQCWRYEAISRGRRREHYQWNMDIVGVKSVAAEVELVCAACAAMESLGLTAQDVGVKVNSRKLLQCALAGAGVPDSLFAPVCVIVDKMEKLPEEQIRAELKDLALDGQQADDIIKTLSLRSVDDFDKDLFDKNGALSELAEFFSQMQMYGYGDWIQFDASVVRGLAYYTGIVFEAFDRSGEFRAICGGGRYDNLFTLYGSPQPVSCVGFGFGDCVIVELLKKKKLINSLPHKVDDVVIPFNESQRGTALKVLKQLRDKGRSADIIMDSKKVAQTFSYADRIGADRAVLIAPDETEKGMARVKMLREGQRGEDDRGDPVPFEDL
UniProt P9WNZ1, whole entry: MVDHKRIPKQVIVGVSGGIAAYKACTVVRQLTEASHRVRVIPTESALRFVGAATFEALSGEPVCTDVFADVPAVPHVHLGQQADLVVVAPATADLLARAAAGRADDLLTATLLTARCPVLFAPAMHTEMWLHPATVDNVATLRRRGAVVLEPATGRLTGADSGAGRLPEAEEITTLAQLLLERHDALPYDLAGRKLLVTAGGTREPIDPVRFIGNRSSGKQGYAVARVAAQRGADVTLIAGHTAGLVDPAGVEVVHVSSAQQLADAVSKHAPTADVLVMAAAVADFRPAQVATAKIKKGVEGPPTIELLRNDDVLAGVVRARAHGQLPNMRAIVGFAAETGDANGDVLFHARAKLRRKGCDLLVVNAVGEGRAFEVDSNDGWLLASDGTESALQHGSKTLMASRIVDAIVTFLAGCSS
UniProt P9WFT3, whole entry: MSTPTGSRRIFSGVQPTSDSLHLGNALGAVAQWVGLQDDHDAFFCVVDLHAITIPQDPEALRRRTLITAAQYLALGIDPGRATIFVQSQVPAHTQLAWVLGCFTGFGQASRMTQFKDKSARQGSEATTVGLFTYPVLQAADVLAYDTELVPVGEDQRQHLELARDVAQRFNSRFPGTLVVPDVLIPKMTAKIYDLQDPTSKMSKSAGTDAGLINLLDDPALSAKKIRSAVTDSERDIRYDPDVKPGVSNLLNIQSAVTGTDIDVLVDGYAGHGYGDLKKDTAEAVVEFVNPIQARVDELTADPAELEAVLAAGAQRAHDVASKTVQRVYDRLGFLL

The values are deposited in ChEMBL (CHEMBL3988442, “University of Dundee, Small-Polar-MMV Screening Library” (2021)).

Values are the deposited “Percent Effect”, in %. How 0% and 100% were set is not recorded. Most values in the screen are low, and negative values occur. The compounds are a random part of those screened.

LiHisRS: 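Histidine-tRNA ligase, Leishmania infantum (UniProt A4I591). Enzyme assay of histidyl-tRNA synthetase; the read-out is not stated. Concentration: 30 µM. Higher reads as stronger inhibition (inferred: compounds with an IC50 in retests scored well above the rest). The assay is labelled LdHisRS but filed under L. infantum. Size under these conditions: about 69,000 compounds, about 410 of them at 50% or above in at least one test.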
CoaBC: 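Coenzyme A biosynthesis protein CoaBC, Mycobacterium tuberculosis (UniProt P9WNZ1). Enzyme assay of CoaBC with a phosphate dye (Biomol Green) read at 650 nm. Tested at 30 µM. Direction is inferred from only a few compounds that gave an IC50; most scored high, so higher reads as stronger inhibition. Most strong results did not repeat in a second test. About 67,000 compounds were tested under these conditions; 0.06% (about 40) showed 50% or more at least once.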
MtTrpRS: 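Enzyme assay of tryptophanyl-tRNA synthetase; the read-out is not stated. Target: Tryptophan-tRNA ligase, Mycobacterium tuberculosis (UniProt P9WFT3). Compounds at 10 µM. Direction is not recorded; retested compounds ran higher, which suggests that high means inhibition. Of about 65,000 compounds tested this way, about 64 (0.098%) reached 50% or more in at least one test.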

For CCOc1ccc(C(=O)CCC(=O)N(C)Cc2snnc2C)cc1C the result was LiHisRS: 19.28%; CoaBC: 4.369%; MtTrpRS: -4.078%.
For N#CCCN(CC1CCOC1)Cn1ccc(-c2ccsc2)n1 (centres undefined) the result was LiHisRS: 5.714%; CoaBC: 10.33%; MtTrpRS: -2.562%.
For COc1nc2c(cc1C(=O)NCc1noc(Cc3cccs3)n1)CCC2 the result was LiHisRS: 16.67%; CoaBC: -3.931%; MtTrpRS: 0.8215%.
For COc1cccc2c1OCC(NCc1cnn(-c3ccccc3F)c1)C2 (centres undefined) the result was LiHisRS: -35.21%; MtTrpRS: 2.119%.
For NC(=O)Cn1cc(NC(=O)NCCN2CCc3ccccc3C2)cn1 the result was LiHisRS: 15.04%; CoaBC: 1.305%; MtTrpRS: 2.257%.
For CC(Cn1cccn1)NC(=O)NCCCN1CCCCCC1=O (centres undefined) the result was LiHisRS: 12.07%; CoaBC: 3.212%; MtTrpRS: -4.413%.
For O=C(CC1CCCC1)N1CCCC(c2n[nH]c3nccnc23)C1 (centres undefined) the result was LiHisRS: 16.67%; CoaBC: 3.333%; MtTrpRS: 1.254%.
For CCCn1nc(C(=O)N2CCCC2c2noc(C)n2)ccc1=O (centres undefined) the result was LiHisRS: 6.667%; CoaBC: 2.871%; MtTrpRS: -0.09709%.
For COc1ccc(NC(=O)c2cc3c([nH]c2=O)CCCC3=O)c(OC)c1 the result was LiHisRS: -1.149%; CoaBC: 2.461%; MtTrpRS: -2.529%.
For COc1ccc(C(=O)N2CCN(C(=O)CCCc3cn[nH]c3)CC2)cc1 the result was LiHisRS: 10.85%; CoaBC: 7.494%; MtTrpRS: 1.724%.
For COCCC(=O)N1CCC(c2nnc(-c3ccsc3)o2)CC1 the result was LiHisRS: 5.594%; CoaBC: 7.506%; MtTrpRS: -1.24%.
For COc1ccc(-c2ccc(C(=O)NCCCC(N)=O)c(F)c2)c(F)c1 the result was LiHisRS: 2.222%; CoaBC: 1.225%; MtTrpRS: -6.173%.
For Cn1ccc(CN2CCC(OCCc3ccccc3)CC2)cc1=O the result was LiHisRS: 13.7%; CoaBC: 0.9639%; MtTrpRS: 4.716%.
For CCn1nc(C)c2nnn(CC(=O)Nc3ccc(C)cc3)c(=O)c21 the result was LiHisRS: 12.07%; CoaBC: -6.236%; MtTrpRS: 2.72%.
For CCN1CCn2c(C)cnc2C12CCN(C(=O)NC)CC2 the result was LiHisRS: 10.09%; CoaBC: 8.471%; MtTrpRS: -1.493%.
For Cc1cc(C(=O)N2CCN(C(=O)CCC3CCCCC3)CC2)n(C)n1 the result was LiHisRS: 18.25%; CoaBC: 3.686%; MtTrpRS: 0.3734%.
For CC(c1ccco1)N(C(=O)Cn1nc2n(c1=O)CCCCC2)C1CC1 (centres undefined) the result was LiHisRS: 14.29%; CoaBC: 1.699%; MtTrpRS: 1.008%.
For Cc1nc(CN(C)C(=O)c2ccc(Cn3cnnn3)cc2)cs1 the result was LiHisRS: 13.56%; CoaBC: -5.646%; MtTrpRS: -0.8675%.
For CC(C(N)=O)N(C)CCCc1cc(-c2ccc(F)cc2)n(C)n1 (centres undefined) the result was LiHisRS: 23.08%; CoaBC: -0.4819%; MtTrpRS: -0.4531%.
For Cc1ncc(-c2ccncc2)c(C2CCCN(C(=O)c3ccno3)C2)n1 (centres undefined) the result was LiHisRS: -2.899%; CoaBC: 2.891%; MtTrpRS: 6.634%.
For CN(C)C(C(=O)N1Cc2ccccc2C1)c1ccccc1F (centres undefined) the result was LiHisRS: -3.03%; CoaBC: 5.325%; MtTrpRS: -0.09234%.
For Cn1ncc(C(=O)N2CCN(C(=O)c3ccco3)CC2)c1Cl the result was LiHisRS: 13.79%; CoaBC: -11.55%; MtTrpRS: 0.2591%.
For CCn1nc(C(=O)N2CCCC2c2noc(C3CC3)n2)ccc1=O (centres undefined) the result was LiHisRS: 6.667%; CoaBC: 5.104%; MtTrpRS: -3.981%.
For CN(C)c1ccc(CN2C[C@H]3CC[C@@H]2CN(C2CCOCC2)C3)cn1 the result was LiHisRS: 18.33%; CoaBC: 13.9%; MtTrpRS: -1.358%.
For CC(C)(C)NS(=O)(=O)c1ccccc1CNCc1cccc(O)c1 the result was LiHisRS: 17.14%; MtTrpRS: -3.199%.
For CN1N=C(C(=O)NCCc2csc(-c3ccccc3)n2)CCC1=O the result was LiHisRS: 31.33%; CoaBC: 2.427%; MtTrpRS: -4.078%.
For O=C(NCC1CCC2(CCNCC2)CO1)c1cnccn1 (centres undefined) the result was LiHisRS: 3.509%; CoaBC: -5.285%; MtTrpRS: 2.185%.
For CCN1CCCCC1C(=O)N1CCN(C(=O)OC)CC1 (centres undefined) the result was LiHisRS: 15.22%; CoaBC: 0.1215%; MtTrpRS: -1.929%.
For Cc1cccc(C)c1NC(=O)c1cccc(N(C)S(C)(=O)=O)c1C the result was LiHisRS: 5.319%; CoaBC: 4.04%; MtTrpRS: 2.71%.